The IC50 is the point on the concentration scale where inhibition reaches its midpoint.

The chains behind the UniProt entries cited, without tags or fusion partners.
UniProt P42336, whole entry: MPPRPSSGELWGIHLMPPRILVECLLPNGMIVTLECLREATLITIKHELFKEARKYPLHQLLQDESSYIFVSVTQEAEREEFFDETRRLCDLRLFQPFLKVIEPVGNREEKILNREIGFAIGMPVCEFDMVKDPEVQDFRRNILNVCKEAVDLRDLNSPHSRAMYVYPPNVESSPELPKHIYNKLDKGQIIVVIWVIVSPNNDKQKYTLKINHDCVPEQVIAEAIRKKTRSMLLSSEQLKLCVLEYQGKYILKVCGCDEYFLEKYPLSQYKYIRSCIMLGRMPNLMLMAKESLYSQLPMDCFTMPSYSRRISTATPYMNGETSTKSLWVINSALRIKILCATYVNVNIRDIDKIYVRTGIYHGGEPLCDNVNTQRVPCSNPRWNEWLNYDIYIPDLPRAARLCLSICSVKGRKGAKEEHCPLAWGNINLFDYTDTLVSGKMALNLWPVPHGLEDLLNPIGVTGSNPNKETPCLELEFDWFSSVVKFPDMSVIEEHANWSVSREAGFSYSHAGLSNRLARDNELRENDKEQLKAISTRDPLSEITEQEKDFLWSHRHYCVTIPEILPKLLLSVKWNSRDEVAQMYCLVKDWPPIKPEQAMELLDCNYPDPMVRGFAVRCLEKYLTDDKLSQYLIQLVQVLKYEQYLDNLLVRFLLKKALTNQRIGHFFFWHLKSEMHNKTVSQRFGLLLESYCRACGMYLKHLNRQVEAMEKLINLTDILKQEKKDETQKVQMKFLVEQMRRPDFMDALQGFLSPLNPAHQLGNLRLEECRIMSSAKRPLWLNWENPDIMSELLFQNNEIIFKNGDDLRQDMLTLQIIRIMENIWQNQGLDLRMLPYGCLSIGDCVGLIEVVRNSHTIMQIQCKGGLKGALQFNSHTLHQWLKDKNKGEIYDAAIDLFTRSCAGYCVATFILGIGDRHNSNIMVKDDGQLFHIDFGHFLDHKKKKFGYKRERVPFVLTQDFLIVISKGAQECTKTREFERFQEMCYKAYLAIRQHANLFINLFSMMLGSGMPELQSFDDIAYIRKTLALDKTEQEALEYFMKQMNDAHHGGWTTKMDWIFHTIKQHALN

Here are results for four molecules from patent US20140066620A1, “PYRIMIDINE SUBSTITUTED PURINE DERIVATIVES” (VERASTEM, INC., priority 2007, published 2014).

One experiment concerns the target T1, Truncated mTOR kinase (Homo sapiens, UniProt P42345).
T1 construct: Truncated mTOR kinase and His-tagged 4eBP1 were produced in-house
Put plainly: mTOR Assay (radiometric phosphorylation of 4eBP1). In kind it is biochemical. The note with it: 4eBP1 substrate, 10 μM ATP, 1 hour at room temperature. On the procedure: Truncated mTOR kinase and His-tagged 4eBP1 were produced in-house. [γ^33P]-ATP was purchased from Amersham (GE Healthcare). All chemicals, unless otherwise stated, were from Sigma-Aldrich.
Phosphorylation assays were initially performed in a final volume of 20 μL in 384-well polypropylene plate (Greiner). Compounds were typically tested over the range from 100 μM to 0.006 μM, in 8 step dilutions, in duplicate. 10 μL/well of 2× Enzyme-Substrate solution (1.5 μg/mL mTOR, 40 μg/mL 4eBP1 in 1× assay buffer: 10 mM Hepes pH 7.5, 50 mM NaCl and 10 mM MnCl2) were first added to the sample plate containing 1 μL/well of test compound in neat DMSO. The reaction was initiated by adding 10 μL/well of 20 μM ATP solution (final assay concentration 10 μM ATP and 0.4 μCi/well of [γhu 33P]-ATP). After 1 hour incubation at room temperature, the reaction was terminated with 40 μL/well of 20 mM EDTA/1 mM ATP solution.
50 μL/well of the stopped reaction mix was then transferred to 384-well MultiScreenHTS-PH filter plate (Millipore) pre-added with 50 μL/well of 1% phosphoric acid. The plate was washed 4 times with 120 μL/well of 0.5% phosphoric acid via vacuum filtration. Finally, 10 μL/well of Optiphase™ SuperMix liquid scintillation cocktail (Perkin Elmer) was added. […]

In experiment [1] the target is T2, Recombinant PI3K p110α/p85 (Homo sapiens, UniProt P42336).
T2 construct: made in house
Put plainly: PI3K Assay (radiometric lipid kinase assay). In kind it is biochemical. The conditions noted are these: p110α/p85, 2 μM ATP, 1 hour at RT; read-out: IC50 (PI3Kα). On the procedure:
Recombinant PI3K p110α/p85 was prepared in-house. Phosphatidylinositol (PtdIns), phosphotidylserine (PtdSer) and all other unspecified chemicals were purchased from Sigma-Aldrich. [γ^33P]ATP and Optiphase scintillant were obtained from Perkin Elmer.
Assays were performed in a final assay volume of 25 μL in 384-well Maxisorp plates (Nunc). Compounds were tested at 8 concentrations in 3-fold serial dilution, generally starting from 10 μM. Maxisorp plates were coated with 20 μL/well of a 1:1 mixture of PtdIns and PtdSer [0.1 mg/mL each dissolved in chloroform:ethanol (3:7)] and left overnight in a fume hood at room temperature (RT) to dry.
The enzyme reaction was created by pipetting 5 μL/well of compound (in 2.5% DMSO), 10 μL/well of enzyme (0.5 μg/mL p110α+1 μg/mL p85), and 10 μL/well of 5 μM ATP with 5 μCi/mL [γ^33P]ATP in assay buffer (final concentrations: 0.2 μg/mL p110α, 2 μM ATP, 0.05 μCi/well [γ^33P]ATP in 1× assay buffer: 100 mM Tris-HCl pH 7.0, 200 mM NaCl, 8 mM MgCl2). The reaction was incubated for 1 hour at RT and terminated with 30 μL/well of 50 mM EDTA solution. The plate was then washed twice with TBS, dried, and added with 30 μL/well of scintillant before it was counted in a MicroBeta Trilux.

As to `CC[C@@H](C)n1cnc2c(-c3cnc(N)nc3)nc(N3CCOCC3)nc21` [Compound 25], the IC50 (against Truncated mTOR kinase; in experiment [1]) was under 1000 nM each time.

On to `CC[C@H](C)n1cnc2c(-c3cnc(N)nc3)nc(N3CCOCC3)nc21` [Compound 26], for which the IC50 in experiment [1] is under 1000 nM.

For `CCC(C)n1cnc2c(-c3cnc(N)nc3)nc(N3CCOCC3)nc21` (centres unmarked) [Compound 26], the IC50 at Truncated mTOR kinase was under 1000 nM.

`CCC(C)n1cnc2c(-c3cnc(N)nc3)nc(N3CCOCC3)nc21` (centres unmarked) [Compound 2, 5-(9-sec-butyl-2-morpholin-4-yl-9H-purin-6-yl)-pyrimidin-2-ylamine]: the IC50 in experiment [1] was under 1000 nM.
